PubChem BioAssay AID1159584 | Peter MacCallum Cancer Centre – 2016

- Screen: 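Genes that CDH1-null MCF10A cells selectively depend on to survive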 (primary screen)
- Cell system: human MCF10A breast epithelial cells, parental and CDH1-null
- Knock-down reagent: siRNA against human genes
- Measurement: 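Cell viability by CellTiter-Glo ATP luminescence, each line scaled to the mean of mock wells across plates, then CDH1-null over parental ratio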
- Direction: CDH1-null / parental viability ratio: higher = CDH1-null cells survive relatively better than parental
This is a random part of about 18,000 deposited reagents. Further read-outs or replicates are left out here. Not given: the amount of reagent, the time to read-out.

APBA2 (amyloid beta precursor protein binding family A member 2) | CDH1-null / parental viability ratio: 1.21
APOL3 (apolipoprotein L3) | CDH1-null / parental viability ratio: 1.03
TMEM38B (transmembrane protein 38B) | CDH1-null / parental viability ratio: 1.09
SRXN1 (sulfiredoxin 1) | CDH1-null / parental viability ratio: 1.74
WNT16 (Wnt family member 16) | CDH1-null / parental viability ratio: 1
PNKD (PNKD metallo-beta-lactamase domain containing) | CDH1-null / parental viability ratio: 1.37
TKTL1 (transketolase like 1) | CDH1-null / parental viability ratio: 0.94
ITGA2B (integrin subunit alpha 2b) | CDH1-null / parental viability ratio: 1.22
TNK2 (tyrosine kinase non receptor 2) | CDH1-null / parental viability ratio: 0.88
KCNJ6 (potassium inwardly rectifying channel subfamily J member 6) | CDH1-null / parental viability ratio: 1.17
ZNF20 (zinc finger protein 20) | CDH1-null / parental viability ratio: 1.5
PHB2 (prohibitin 2) | CDH1-null / parental viability ratio: 1.12
SLC35A1 | CDH1-null / parental viability ratio: 1.08
RELL2 (RELT like 2) | CDH1-null / parental viability ratio: 0.94
LRRN2 (leucine rich repeat neuronal 2) | CDH1-null / parental viability ratio: 0.71
SYNPO2L (synaptopodin 2 like) | CDH1-null / parental viability ratio: 0.82
SYCP2L (synaptonemal complex protein 2 like) | CDH1-null / parental viability ratio: 1.24
DTX3L (deltex E3 ubiquitin ligase 3L) | CDH1-null / parental viability ratio: 1
GIPC1 (GIPC PDZ domain containing family member 1) | CDH1-null / parental viability ratio: 1.06
CES3 (carboxylesterase 3) | CDH1-null / parental viability ratio: 1.1
HPCAL4 (hippocalcin like 4) | CDH1-null / parental viability ratio: 1.02
PGLS (6-phosphogluconolactonase) | CDH1-null / parental viability ratio: 1.37
ERAP1 (endoplasmic reticulum aminopeptidase 1) | CDH1-null / parental viability ratio: 1.19
ZNF658 (zinc finger protein 658) | CDH1-null / parental viability ratio: 1.01
GRPEL1 (GrpE like 1, mitochondrial) | CDH1-null / parental viability ratio: 0.79
RPL22 (ribosomal protein L22) | CDH1-null / parental viability ratio: 0.92
ABCG2 (ATP binding cassette subfamily G member 2 (JR blood group)) | CDH1-null / parental viability ratio: 1.06
KCND3 (potassium voltage-gated channel subfamily D member 3) | CDH1-null / parental viability ratio: 1.05
TAF10 (TATA-box binding protein associated factor 10) | CDH1-null / parental viability ratio: 0.86
RUBCNL (rubicon like autophagy enhancer) | CDH1-null / parental viability ratio: 0.94
RFK (riboflavin kinase) | CDH1-null / parental viability ratio: 0.87
DTX3 (deltex E3 ubiquitin ligase 3) | CDH1-null / parental viability ratio: 1.01
TUT1 (terminal uridylyl transferase 1, U6 snRNA-specific) | CDH1-null / parental viability ratio: 0.83
HMG20A (high mobility group 20A) | CDH1-null / parental viability ratio: 1.03
IL16 (interleukin 16) | CDH1-null / parental viability ratio: 1.08
